Data reported in article PMC4539610.
No constants are given. Whether binding was seen depends on the method and setting. In cells and extracts the contact can be indirect. Some entries that bind do so weakly or less than the wild type. Each block holds one substance with its values, some of them ahead of it.

Amino acid sequences for entries named in this document (tags omitted). A change or cut given only in a name is not applied to a line headed by its entry.
UniProt P05198: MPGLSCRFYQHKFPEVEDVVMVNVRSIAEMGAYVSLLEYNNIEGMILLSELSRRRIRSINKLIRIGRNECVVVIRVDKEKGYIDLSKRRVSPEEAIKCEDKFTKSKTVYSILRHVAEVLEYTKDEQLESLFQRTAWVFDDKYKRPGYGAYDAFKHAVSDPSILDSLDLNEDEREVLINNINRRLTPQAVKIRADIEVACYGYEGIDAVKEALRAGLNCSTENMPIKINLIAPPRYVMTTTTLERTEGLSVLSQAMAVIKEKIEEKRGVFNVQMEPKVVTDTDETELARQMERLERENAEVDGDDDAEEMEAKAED
UniProt Q9NTK5: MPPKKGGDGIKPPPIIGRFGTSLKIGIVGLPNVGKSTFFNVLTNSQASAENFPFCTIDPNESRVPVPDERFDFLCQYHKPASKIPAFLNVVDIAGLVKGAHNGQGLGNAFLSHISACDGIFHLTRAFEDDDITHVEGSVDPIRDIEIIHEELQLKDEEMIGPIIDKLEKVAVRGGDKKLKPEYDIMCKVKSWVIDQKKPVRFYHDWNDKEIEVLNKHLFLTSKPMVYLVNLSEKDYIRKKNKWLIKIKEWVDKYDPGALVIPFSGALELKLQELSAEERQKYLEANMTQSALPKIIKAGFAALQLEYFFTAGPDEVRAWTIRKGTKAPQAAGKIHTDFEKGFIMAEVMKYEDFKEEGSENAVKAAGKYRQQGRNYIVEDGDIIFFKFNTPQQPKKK
UniProt P41091: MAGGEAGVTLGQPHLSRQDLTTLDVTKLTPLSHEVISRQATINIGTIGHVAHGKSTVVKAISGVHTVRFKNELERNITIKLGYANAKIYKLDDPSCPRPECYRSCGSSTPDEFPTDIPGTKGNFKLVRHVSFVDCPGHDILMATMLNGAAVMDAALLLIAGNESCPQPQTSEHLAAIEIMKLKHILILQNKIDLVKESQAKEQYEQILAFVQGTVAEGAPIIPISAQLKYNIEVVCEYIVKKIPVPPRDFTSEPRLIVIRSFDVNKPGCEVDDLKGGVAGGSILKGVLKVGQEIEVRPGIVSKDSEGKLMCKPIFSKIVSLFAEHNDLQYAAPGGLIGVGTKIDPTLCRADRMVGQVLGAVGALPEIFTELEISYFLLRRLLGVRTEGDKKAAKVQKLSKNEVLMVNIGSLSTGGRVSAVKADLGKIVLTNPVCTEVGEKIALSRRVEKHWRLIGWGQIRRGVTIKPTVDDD
UniProt P20042: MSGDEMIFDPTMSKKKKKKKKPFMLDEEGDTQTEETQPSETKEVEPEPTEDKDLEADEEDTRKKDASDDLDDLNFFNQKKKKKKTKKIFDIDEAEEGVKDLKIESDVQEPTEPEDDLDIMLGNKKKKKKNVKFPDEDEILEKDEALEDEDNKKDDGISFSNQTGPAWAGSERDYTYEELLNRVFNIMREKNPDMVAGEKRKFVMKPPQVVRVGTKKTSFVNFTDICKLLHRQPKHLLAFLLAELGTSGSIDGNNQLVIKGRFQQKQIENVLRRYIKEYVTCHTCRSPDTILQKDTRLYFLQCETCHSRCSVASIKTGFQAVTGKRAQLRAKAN

How the values were obtained:
[1] = molecular target: HA-tagged eIF2α (wild type), ectopically expressed (UniProt P05198); test: co-IP; HEK293T cells transfected with control vector or HA-eIF2α vectors; lysates immunoprecipitated with anti-HA antibody, immunoblot
[2] = molecular target: eIF2α (α subunit of eukaryotic initiation factor 2), endogenously expressed (human (endogenous in HEK293T)) (UniProt P05198); test: co-IP; HEK293T cell lysate immunoprecipitated with anti-eIF2α or anti-IgG antibody, blotted with anti-OLA1 and anti-eIF2α; both proteins endogenous
[3] = molecular target: recombinant OLA1 (wild type) (human) (UniProt Q9NTK5); test: pull-down; recombinant OLA1 as bait, the three eIF2 subunits detected (Fig. S2D); details not shown
[4] = molecular target: FLAG-tagged OLA1 (wild type), ectopically expressed (human) (UniProt Q9NTK5); test: co-IP; HEK293T cells transfected with control or FLAG-OLA1 vector for 48 h; lysates immunoprecipitated with anti-FLAG antibody, immunoblot
[5] = molecular target: eIF2α of the in vitro IP assay (UniProt P05198); test: co-IP; in vitro IP assay (Fig. S2C); details not shown

Substance: OLA1 (Obg-like ATPase 1), endogenously expressed (from UniProt Q9NTK5-1 1-396)
binding [1]: binds
binding [2]: binds

Substance: eIF2 γ subunit pulled down by recombinant OLA1 (from UniProt P41091 1-472)
binding [3]: binds

Substance: eIF2α (α subunit of eukaryotic initiation factor 2), endogenously expressed (from UniProt P05198 1-315)
binding [4]: binds

Substance: OLA1 of the in vitro IP assay (from UniProt Q9NTK5-1 1-396)
binding [5]: binds

Other lines, results leading:

binding [3]: binds
Substance: eIF2 α subunit pulled down by recombinant OLA1 (from UniProt P05198 1-315)

binding [3]: binds
Substance: eIF2 β subunit pulled down by recombinant OLA1 (from UniProt P20042 1-333)
